Measured values from the supplement of paper PMC12823440, “Inhibitors supercharge kinase turnover through native proteolytic circuits” (Nature, 2025).
Where a name gives a salt, the structure may show the parent alone. The list shows a part of the results. The calls rarely recur for the same compound in another form.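 Kinases, fused to nanoluciferase, were expressed in K562 cells; luminescence was measured every 4 h from 2 to 18 h as percent of control (DMSO = 100%, positive control = 0%). A time point is decreased if signal falls significantly (2 sigma). Hits were called by the authors by a rule that is not shown; the count of time points alone does not decide it.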

Chains of the proteins cited; added tags and fusions are not shown. Lines headed by an entry give the natural chain unless they say otherwise; changes in a name come on top.
UniProt P00519, whole entry: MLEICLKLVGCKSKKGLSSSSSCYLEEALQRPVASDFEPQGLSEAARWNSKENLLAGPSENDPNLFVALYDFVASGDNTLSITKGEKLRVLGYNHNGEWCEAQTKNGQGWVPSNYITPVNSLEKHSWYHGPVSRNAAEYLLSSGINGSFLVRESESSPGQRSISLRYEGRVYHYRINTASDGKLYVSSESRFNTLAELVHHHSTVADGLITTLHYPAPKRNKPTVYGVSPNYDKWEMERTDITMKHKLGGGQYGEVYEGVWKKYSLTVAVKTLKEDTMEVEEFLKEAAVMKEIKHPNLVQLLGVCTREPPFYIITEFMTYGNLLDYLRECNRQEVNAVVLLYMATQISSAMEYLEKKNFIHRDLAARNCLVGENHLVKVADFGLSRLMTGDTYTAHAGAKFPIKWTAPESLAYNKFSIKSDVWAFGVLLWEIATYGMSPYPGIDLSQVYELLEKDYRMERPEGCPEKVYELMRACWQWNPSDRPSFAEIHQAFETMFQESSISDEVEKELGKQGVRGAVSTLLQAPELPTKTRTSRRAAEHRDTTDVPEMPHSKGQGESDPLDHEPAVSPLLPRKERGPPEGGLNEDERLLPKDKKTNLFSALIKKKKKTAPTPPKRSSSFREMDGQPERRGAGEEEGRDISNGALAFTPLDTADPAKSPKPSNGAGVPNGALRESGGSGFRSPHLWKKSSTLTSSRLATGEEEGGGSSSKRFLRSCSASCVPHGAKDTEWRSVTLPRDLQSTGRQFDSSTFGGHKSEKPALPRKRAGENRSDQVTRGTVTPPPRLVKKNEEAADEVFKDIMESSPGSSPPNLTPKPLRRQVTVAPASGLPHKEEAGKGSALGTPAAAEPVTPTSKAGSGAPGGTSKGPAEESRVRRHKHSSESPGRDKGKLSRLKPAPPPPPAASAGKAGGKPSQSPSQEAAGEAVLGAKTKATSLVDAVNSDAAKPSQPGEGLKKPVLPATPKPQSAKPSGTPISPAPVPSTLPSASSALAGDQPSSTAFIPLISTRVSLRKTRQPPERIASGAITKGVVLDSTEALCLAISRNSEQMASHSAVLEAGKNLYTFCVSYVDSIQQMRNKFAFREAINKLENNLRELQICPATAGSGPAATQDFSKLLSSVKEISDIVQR
UniProt Q9UM73: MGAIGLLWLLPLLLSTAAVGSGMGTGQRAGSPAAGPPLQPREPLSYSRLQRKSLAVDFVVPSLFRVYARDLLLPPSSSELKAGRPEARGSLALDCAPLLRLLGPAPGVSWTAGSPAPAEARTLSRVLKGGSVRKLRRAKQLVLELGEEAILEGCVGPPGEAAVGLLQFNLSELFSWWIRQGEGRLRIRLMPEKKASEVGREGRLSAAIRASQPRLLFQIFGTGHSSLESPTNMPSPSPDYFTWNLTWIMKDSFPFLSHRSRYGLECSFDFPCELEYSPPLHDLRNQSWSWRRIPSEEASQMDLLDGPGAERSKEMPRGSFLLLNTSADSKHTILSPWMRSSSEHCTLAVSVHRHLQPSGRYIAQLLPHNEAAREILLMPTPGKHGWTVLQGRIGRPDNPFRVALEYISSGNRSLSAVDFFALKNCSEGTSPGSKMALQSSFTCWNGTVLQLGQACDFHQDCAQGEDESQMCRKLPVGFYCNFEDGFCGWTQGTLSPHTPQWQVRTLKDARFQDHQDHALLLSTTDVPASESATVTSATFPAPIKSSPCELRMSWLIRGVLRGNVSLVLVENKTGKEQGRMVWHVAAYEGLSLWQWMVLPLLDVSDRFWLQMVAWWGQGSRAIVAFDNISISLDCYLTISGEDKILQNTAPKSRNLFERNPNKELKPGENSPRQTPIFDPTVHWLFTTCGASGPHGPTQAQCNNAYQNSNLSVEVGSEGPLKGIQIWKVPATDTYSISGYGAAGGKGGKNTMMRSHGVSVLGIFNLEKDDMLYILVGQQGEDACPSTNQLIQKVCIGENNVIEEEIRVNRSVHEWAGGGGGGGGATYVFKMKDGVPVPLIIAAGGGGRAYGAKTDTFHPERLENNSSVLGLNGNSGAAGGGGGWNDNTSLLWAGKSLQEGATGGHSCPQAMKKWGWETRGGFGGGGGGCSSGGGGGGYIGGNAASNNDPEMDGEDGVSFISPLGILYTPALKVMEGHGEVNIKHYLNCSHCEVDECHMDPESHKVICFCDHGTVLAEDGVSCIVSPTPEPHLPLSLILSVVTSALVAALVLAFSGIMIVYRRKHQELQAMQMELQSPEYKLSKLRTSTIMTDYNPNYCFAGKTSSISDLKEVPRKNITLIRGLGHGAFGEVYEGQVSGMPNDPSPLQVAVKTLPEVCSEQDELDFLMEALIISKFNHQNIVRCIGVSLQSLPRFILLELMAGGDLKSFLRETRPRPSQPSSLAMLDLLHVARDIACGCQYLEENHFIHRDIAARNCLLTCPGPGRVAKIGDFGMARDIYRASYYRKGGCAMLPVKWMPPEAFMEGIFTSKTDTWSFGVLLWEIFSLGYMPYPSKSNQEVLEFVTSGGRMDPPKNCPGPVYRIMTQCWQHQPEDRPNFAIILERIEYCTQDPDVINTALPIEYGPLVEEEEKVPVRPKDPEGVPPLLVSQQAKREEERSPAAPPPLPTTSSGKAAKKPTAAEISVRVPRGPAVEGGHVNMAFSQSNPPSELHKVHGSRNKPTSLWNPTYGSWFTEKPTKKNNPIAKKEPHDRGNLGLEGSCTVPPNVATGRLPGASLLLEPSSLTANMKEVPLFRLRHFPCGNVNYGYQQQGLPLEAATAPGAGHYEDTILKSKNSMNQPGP
UniProt O14965: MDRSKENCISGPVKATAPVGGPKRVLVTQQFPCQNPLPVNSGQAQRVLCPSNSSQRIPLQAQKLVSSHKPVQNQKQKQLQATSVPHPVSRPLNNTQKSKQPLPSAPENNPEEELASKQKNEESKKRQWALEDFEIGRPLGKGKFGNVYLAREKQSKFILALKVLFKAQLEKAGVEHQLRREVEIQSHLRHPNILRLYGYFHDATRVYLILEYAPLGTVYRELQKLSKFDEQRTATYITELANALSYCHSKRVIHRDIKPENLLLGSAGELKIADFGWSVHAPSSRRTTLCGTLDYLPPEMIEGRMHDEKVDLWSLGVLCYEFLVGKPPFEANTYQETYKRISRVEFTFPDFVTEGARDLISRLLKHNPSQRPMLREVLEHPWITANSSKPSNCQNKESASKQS
UniProt Q96GD4, whole entry: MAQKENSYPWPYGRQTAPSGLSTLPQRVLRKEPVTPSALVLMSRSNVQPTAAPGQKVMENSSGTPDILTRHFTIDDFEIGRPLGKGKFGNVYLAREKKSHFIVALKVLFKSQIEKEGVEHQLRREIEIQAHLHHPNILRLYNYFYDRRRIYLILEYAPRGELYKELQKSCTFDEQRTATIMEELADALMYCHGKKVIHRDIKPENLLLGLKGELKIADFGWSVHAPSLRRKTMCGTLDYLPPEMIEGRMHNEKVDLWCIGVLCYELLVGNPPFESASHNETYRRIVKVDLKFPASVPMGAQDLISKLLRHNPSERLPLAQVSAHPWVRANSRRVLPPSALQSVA
UniProt P51813: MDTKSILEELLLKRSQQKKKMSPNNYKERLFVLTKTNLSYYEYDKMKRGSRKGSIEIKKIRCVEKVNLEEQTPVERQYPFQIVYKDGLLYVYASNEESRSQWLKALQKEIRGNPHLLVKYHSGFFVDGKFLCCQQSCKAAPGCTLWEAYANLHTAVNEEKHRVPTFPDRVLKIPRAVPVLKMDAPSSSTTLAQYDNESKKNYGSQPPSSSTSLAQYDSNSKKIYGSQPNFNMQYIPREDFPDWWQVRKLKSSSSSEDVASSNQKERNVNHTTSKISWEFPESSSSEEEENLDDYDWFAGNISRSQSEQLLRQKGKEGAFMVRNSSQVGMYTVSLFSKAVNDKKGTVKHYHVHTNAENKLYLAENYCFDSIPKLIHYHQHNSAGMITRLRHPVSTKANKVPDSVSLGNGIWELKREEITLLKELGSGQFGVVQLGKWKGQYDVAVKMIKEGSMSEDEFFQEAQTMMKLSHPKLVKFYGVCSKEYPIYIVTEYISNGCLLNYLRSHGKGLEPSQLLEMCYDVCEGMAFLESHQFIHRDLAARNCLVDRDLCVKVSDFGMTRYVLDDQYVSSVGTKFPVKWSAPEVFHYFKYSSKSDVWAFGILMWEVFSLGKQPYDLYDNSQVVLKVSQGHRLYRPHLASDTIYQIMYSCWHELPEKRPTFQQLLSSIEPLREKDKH
UniProt P15056, whole entry, looked up: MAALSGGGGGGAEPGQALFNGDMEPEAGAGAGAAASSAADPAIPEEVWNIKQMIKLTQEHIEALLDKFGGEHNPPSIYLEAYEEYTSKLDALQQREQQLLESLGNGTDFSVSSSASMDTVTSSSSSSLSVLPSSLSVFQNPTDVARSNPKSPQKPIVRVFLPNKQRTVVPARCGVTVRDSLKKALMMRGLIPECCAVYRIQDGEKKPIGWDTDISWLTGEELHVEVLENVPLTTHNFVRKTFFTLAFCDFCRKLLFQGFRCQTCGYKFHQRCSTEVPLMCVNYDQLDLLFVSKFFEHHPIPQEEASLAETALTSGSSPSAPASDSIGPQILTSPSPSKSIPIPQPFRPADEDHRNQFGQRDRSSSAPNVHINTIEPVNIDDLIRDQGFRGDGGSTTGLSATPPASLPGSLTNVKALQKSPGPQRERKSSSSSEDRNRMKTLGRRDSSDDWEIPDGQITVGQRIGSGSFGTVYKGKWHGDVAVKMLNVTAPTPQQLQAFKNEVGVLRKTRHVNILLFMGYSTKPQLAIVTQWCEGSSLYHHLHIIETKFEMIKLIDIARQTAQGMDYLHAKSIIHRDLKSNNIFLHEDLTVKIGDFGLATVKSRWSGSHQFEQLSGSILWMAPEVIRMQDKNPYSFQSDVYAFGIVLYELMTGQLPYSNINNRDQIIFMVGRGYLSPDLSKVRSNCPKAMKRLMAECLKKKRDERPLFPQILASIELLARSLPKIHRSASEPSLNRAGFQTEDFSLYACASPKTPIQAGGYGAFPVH
UniProt Q06187: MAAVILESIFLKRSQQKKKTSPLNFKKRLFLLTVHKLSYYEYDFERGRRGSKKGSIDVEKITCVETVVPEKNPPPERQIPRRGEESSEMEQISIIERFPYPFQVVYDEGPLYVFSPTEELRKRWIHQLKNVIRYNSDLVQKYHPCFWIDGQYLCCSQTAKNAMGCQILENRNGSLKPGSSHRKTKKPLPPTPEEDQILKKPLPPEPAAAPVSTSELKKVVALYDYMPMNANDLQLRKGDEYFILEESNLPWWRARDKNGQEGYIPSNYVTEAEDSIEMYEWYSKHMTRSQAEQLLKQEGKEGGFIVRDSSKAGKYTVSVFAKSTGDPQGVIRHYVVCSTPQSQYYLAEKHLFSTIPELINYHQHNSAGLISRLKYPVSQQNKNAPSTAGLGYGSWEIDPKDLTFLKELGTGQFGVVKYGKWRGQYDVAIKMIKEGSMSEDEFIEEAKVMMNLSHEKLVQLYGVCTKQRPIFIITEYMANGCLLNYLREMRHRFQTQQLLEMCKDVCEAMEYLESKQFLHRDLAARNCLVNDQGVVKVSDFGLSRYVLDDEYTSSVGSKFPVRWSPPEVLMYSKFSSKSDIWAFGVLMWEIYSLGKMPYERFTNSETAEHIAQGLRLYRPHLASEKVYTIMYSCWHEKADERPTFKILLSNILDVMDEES
UniProt Q9UQM7, whole entry: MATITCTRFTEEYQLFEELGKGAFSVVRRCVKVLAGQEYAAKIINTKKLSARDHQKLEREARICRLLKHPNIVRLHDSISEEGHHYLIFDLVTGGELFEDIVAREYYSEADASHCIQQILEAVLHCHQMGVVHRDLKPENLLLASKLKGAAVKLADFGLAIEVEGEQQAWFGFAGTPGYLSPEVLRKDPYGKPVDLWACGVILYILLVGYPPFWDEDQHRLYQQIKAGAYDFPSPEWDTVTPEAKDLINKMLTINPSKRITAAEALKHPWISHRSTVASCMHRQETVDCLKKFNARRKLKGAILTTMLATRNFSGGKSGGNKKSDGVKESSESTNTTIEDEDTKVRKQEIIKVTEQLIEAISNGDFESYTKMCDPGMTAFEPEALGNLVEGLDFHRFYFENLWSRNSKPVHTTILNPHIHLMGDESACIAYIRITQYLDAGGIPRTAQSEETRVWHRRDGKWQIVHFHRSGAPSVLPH
UniProt Q00535, whole entry, looked up: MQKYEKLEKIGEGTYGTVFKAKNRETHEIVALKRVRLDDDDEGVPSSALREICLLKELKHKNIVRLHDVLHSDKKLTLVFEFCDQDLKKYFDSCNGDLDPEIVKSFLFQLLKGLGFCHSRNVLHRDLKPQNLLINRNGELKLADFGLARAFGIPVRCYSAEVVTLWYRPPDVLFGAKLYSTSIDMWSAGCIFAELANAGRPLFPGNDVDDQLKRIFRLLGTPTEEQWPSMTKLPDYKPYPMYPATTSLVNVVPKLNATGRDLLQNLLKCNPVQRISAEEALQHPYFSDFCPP

Columns and labels:
Assay in all cases: kinase-Nluc reporter destabilization hit call (1 = scored as downregulated) (binary); higher = compound decreases kinase abundance
Details in all cases: K562; 2-18 h
ABL1 = ABL1 (UniProt P00519)
AKT1 = AKT1 (UniProt P31749)
ALK = ALK (UniProt Q9UM73)
ARAF = ARAF (UniProt P10398)
AURKA = AURKA (UniProt O14965)
AURKB = AURKB (UniProt Q96GD4)
AURKC = AURKC (UniProt Q9UQB9)
BLK = BLK (UniProt P51451)
BMX = BMX (UniProt P51813)
BRAF = BRAF (UniProt P15056)
BRAF_V600E = tested on: BRAF_V600E
BTK = BTK (UniProt Q06187)
CAMK2A = CAMK2A (UniProt Q9UQM7)
CAMK2G = CAMK2G (UniProt Q13555)
CDK10 = CDK10 (UniProt Q15131)
CDK2 = CDK2 (UniProt P24941)
CDK3 = CDK3 (UniProt Q00526)
CDK4 = CDK4 (UniProt P11802)
CDK5 = CDK5 (UniProt Q00535)
CDK6 = CDK6 (UniProt Q00534)

Measured: kinase-Nluc reporter destabilization hit call

CCOC(=O)c1c(/C(C#N)=C\N)c2ccc(Cl)c(Cl)c2n1C (10 µM)
inactive: ABL1 = 0 | AKT1 = 0 | ALK 0 | ARAF 0 | AURKA 0 | AURKB 0 | AURKC 0 | BLK 0 | BMX 0 | BRAF 0 | BRAF_V600E 0 | BTK 0 | CAMK2A 0 | CAMK2G 0 | CDK10 = 0 | CDK2 = 0 | CDK3 = 0 | CDK4 = 0 | CDK5 = 0 | CDK6 = 0

C[C@H]1CC[C@]2(NC1)O[C@H]1C[C@H]3[C@@H]4CC[C@H]5C[C@@H](O)CC[C@]5(C)[C@H]4CC[C@]3(C)[C@H]1[C@@H]2C [Tomatidine (hydrochloride)] (10 µM)
inactive: ABL1 = 0 | AKT1 = 0 | ALK 0 | ARAF 0 | AURKA 0 | AURKB 0 | AURKC 0 | BLK 0 | BMX 0 | BRAF 0 | BRAF_V600E 0 | BTK 0 | CAMK2A 0 | CAMK2G 0 | CDK10 = 0 | CDK2 = 0 | CDK3 = 0 | CDK4 = 0 | CDK5 = 0 | CDK6 = 0

C[C@H](Nc1ncnc2[nH]cnc12)c1nc2ccc(F)cc2c(=O)n1-c1ccccc1 [Acalisib] (10 µM)
inactive: ABL1 = 0 | AKT1 = 0 | ALK 0 | ARAF 0 | AURKA 0 | AURKB 0 | AURKC 0 | BLK 0 | BMX 0 | BRAF 0 | BRAF_V600E 0 | BTK 0 | CAMK2A 0 | CAMK2G 0 | CDK10 = 0 | CDK2 = 0 | CDK3 = 0 | CDK4 = 0 | CDK5 = 0 | CDK6 = 0

COc1ccc(N(C(=O)Oc2c(C)cccc2C)c2ccnc(Nc3ccc(N4CCN(C)CC4)cc3)n2)c(OC)c1 (2.5 µM)
inactive: ABL1 = 0 | AKT1 = 0 | ALK 0 | ARAF 0 | AURKA 0 | AURKB 0 | AURKC 0 | BLK 0 | BMX 0 | BRAF 0 | BRAF_V600E 0 | BTK 0 | CAMK2A 0 | CAMK2G 0 | CDK10 = 0 | CDK2 = 0 | CDK3 = 0 | CDK4 = 0 | CDK5 = 0 | CDK6 = 0

CC(C)(C)c1cc(C=C(C#N)C#N)cc(Br)c1O (2.5 µM)
inactive: ABL1 = 0 | AKT1 = 0 | ALK 0 | ARAF 0 | AURKA 0 | AURKB 0 | AURKC 0 | BLK 0 | BMX 0 | BRAF 0 | BRAF_V600E 0 | BTK 0 | CAMK2A 0 | CAMK2G 0 | CDK10 = 0 | CDK2 = 0 | CDK3 = 0 | CDK4 = 0 | CDK5 = 0 | CDK6 = 0

Cn1cc(C2=C(c3cn(C4CCN(Cc5ccccn5)CC4)c4ccccc34)C(=O)NC2=O)c2ccccc21 [Enzastaurin] (10 µM)
inactive: ABL1 = 0 | AKT1 = 0 | ALK 0 | ARAF 0 | AURKA 0 | AURKB 0 | AURKC 0 | BLK 0 | BMX 0 | BRAF 0 | BRAF_V600E 0 | BTK 0 | CAMK2A 0 | CAMK2G 0 | CDK10 = 0 | CDK2 = 0 | CDK3 = 0 | CDK4 = 0 | CDK5 = 0 | CDK6 = 0

No new results follow: 2 of the compounds above.
C[C@H](Nc1ncnc2[nH]cnc12)c1nc2ccc(F)cc2c(=O)n1-c1ccccc1 [Acalisib] (10 µM)
inactive: ABL1 = 0 | AKT1 = 0 | ALK 0 | ARAF 0 | AURKA 0 | AURKB 0 | AURKC 0 | BLK 0 | BMX 0 | BRAF 0 | BRAF_V600E 0 | BTK 0 | CAMK2A 0 | CAMK2G 0 | CDK10 = 0 | CDK2 = 0 | CDK3 = 0 | CDK4 = 0 | CDK5 = 0 | CDK6 = 0

COc1ccc(N(C(=O)Oc2c(C)cccc2C)c2ccnc(Nc3ccc(N4CCN(C)CC4)cc3)n2)c(OC)c1 (2.5 µM)
inactive: ABL1 = 0 | AKT1 = 0 | ALK 0 | ARAF 0 | AURKA 0 | AURKB 0 | AURKC 0 | BLK 0 | BMX 0 | BRAF 0 | BRAF_V600E 0 | BTK 0 | CAMK2A 0 | CAMK2G 0 | CDK10 = 0 | CDK2 = 0 | CDK3 = 0 | CDK4 = 0 | CDK5 = 0 | CDK6 = 0

The list goes on:

COc1cc2c(cc1F)C(c1ccccc1Cl)=Nc1c(n[nH]c1C)N2 (0.5 µM)
inactive: ABL1 = 0 | AKT1 = 0 | ALK 0 | ARAF 0 | AURKA 0 | AURKB 0 | AURKC 0 | BLK 0 | BMX 0 | BRAF 0 | BRAF_V600E 0 | CAMK2A 0 | CAMK2G 0 | CDK10 = 0 | CDK2 = 0 | CDK3 = 0 | CDK4 = 0 | CDK6 = 0

O=C(O)c1nn(Cc2ccc(Cl)cc2Cl)c2ccccc12 [Lonidamine] (10 µM)
inactive: ABL1 = 0 | AKT1 = 0 | ALK 0 | ARAF 0 | AURKA 0 | AURKB 0 | AURKC 0 | BLK 0 | BMX 0 | BRAF 0 | BRAF_V600E 0 | BTK 0 | CAMK2A 0 | CAMK2G 0 | CDK10 = 0 | CDK2 = 0 | CDK3 = 0 | CDK4 = 0 | CDK5 = 0 | CDK6 = 0

CN(C)C(=O)c1ccc(Cn2c(C(=O)O)cc3c(Br)cc(Sc4ccc(Cl)c(Cl)c4)cc32)cc1 [Rheb inhibitor NR1] (10 µM)
inactive: ABL1 = 0 | AKT1 = 0 | ALK 0 | ARAF 0 | AURKA 0 | AURKB 0 | AURKC 0 | BLK 0 | BMX 0 | BRAF 0 | BRAF_V600E 0 | BTK 0 | CAMK2A 0 | CAMK2G 0 | CDK10 = 0 | CDK2 = 0 | CDK3 = 0 | CDK4 = 0 | CDK5 = 0 | CDK6 = 0

Nc1ncnc2c1ncn2[C@@H]1O[C@@H]2COP(O)(=S)O[C@H]2[C@H]1O (stereo partly drawn) [Sp-cAMPS (sodium salt)] (10 µM)
inactive: ABL1 = 0 | AKT1 = 0 | ALK 0 | ARAF 0 | AURKA 0 | AURKB 0 | AURKC 0 | BLK 0 | BMX 0 | BRAF 0 | BRAF_V600E 0 | BTK 0 | CAMK2A 0 | CAMK2G 0 | CDK10 = 0 | CDK2 = 0 | CDK3 = 0 | CDK4 = 0 | CDK5 = 0 | CDK6 = 0

O=C(N[C@@H](COc1ccc2[nH]c(=O)[nH]c2c1)c1ccccc1)c1cccn(Cc2ccc(F)c(F)c2)c1=O (2.5 µM)
inactive: ABL1 = 0 | AKT1 = 0 | ALK 0 | ARAF 0 | AURKA 0 | AURKB 0 | AURKC 0 | BLK 0 | BMX 0 | BRAF 0 | BRAF_V600E 0 | BTK 0 | CAMK2A 0 | CAMK2G 0 | CDK10 = 0 | CDK2 = 0 | CDK3 = 0 | CDK4 = 0 | CDK5 = 0 | CDK6 = 0
